Values from PubChem BioAssay AID1224830 (NIAID, 2016)
Shown is an unselected part of about 18,000 reagents tested. About 2,900 of all reagents (16%) were called active. 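Calls are made per well; low scores hint the gene aids the LPS response, high scores that it dampens it.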 Unmarked entries are inactive. Repeated entries: four replicate wells of each siRNA pool.

Purpose: 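Host factors that control LPS-induced TNF expression in human macrophages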 (primary screen)
Cells: human THP-1 monocytic leukaemia cells, TNF dual-luciferase reporter clone, PMA-differentiated to macrophage-like cells
Knock-down reagent: siRNA pool against human genes, 50 nM
Time to read-out: LPS for 4 h, given about 3 days after siRNA transfection
Conditions: bacterial LPS (TLR4 ligand), 10 ng/ml
Read-out: 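Ratio of firefly to renilla light, scaled to the plate median and expressed as a robust z-score per replicate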
Direction: TNF reporter robust z-score: higher = stronger TNF reporter response to LPS
Rule for the call: 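a well is active when its z-score exceeds 2.8 or falls below -1.5; control wells carry no call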

PSMA2 showed TNF reporter robust z-score -1.52 (active). Knock-down of PSMA2 resulted in: TNF reporter robust z-score -1.33. Against PSMA2, the values are TNF reporter robust z-score -1.34. Depletion of PSMA2 resulted in: TNF reporter robust z-score -0.2. TJAP1 showed TNF reporter robust z-score 0.07. Silencing of TJAP1 resulted in: TNF reporter robust z-score 1.56.

TJAP1 scored TNF reporter robust z-score 0.7. With knock-down of TJAP1, the screen gave TNF reporter robust z-score 0.98. Silencing of CST1 came out at: TNF reporter robust z-score 1.31. After knock-down of CST1, the record shows TNF reporter robust z-score 0.05. CST1 showed TNF reporter robust z-score 0.35. CST1 gave TNF reporter robust z-score -0.21.

With knock-down of ZNF521 the results were TNF reporter robust z-score -0.74. Knock-down of ZNF521 gave: TNF reporter robust z-score 1.23. Against ZNF521, the values are TNF reporter robust z-score 1.17. Depletion of ZNF521 came out at: TNF reporter robust z-score 2.09. Knock-down of ATP23 gave: TNF reporter robust z-score 1.06. After knock-down of ATP23, the screen gave TNF reporter robust z-score 0.

After knock-down of ATP23, the screen gave TNF reporter robust z-score -0.85. Depletion of ATP23 resulted in: TNF reporter robust z-score -0.23. Against LMNB2, the entry reads TNF reporter robust z-score -0.5. Depletion of LMNB2 resulted in: TNF reporter robust z-score -0.47. LMNB2 gave TNF reporter robust z-score -0.77. Knock-down of LMNB2 came out at: TNF reporter robust z-score -0.55.

After knock-down of ZNF276 the results were TNF reporter robust z-score 0.04. For ZNF276 the deposit lists TNF reporter robust z-score 1.25. ZNF276 gave TNF reporter robust z-score 0.78. With knock-down of ZNF276, the record shows TNF reporter robust z-score 0.45. With knock-down of TOR4A the results were TNF reporter robust z-score -1.27. Knock-down of TOR4A resulted in: TNF reporter robust z-score -1.3.

After knock-down of TOR4A, the record shows TNF reporter robust z-score -1.04. TOR4A scored TNF reporter robust z-score -1.14. SEC24C showed TNF reporter robust z-score 0.63. SEC24C showed TNF reporter robust z-score -0.25. Against SEC24C, the entry reads TNF reporter robust z-score -1.6 (active). Silencing of SEC24C resulted in: TNF reporter robust z-score -0.03.

Knock-down of MFNG gave: TNF reporter robust z-score -1.18. For MFNG the deposit lists TNF reporter robust z-score -0.97. Knock-down of MFNG came out at: TNF reporter robust z-score -0.93. Against MFNG, the values are TNF reporter robust z-score -0.74. Against RHOBTB3, the entry reads TNF reporter robust z-score -0.42. Depletion of RHOBTB3 resulted in: TNF reporter robust z-score -0.53.

RHOBTB3 gave TNF reporter robust z-score 0.41. After knock-down of RHOBTB3, the record shows TNF reporter robust z-score 0.7. RPGRIP1 showed TNF reporter robust z-score -1.95 (active). RPGRIP1 showed TNF reporter robust z-score -1.97 (active). RPGRIP1 scored TNF reporter robust z-score -1.89 (active). For RPGRIP1 the deposit lists TNF reporter robust z-score -1.75 (active).
